Measured values: PubChem BioAssay AID587 (National Center for Advancing Translational Sciences (NCATS), 2007)
The campaign covered roughly 59,000 compounds. About 35 (0.06%) were called active. The inconclusive results got no clear call from the source; some entries with a clear call stand among them for comparison. Rule as the data show it: active = max dye-equivalent concentration above about 10 nM; inconclusive = between about 1.1 nM and that limit; inactive = weaker than that.

Assay: qHTS Assay for Spectroscopic Profiling in Texas Red Spectral Region
Conditions: Compound fluorescence, Texas Red channel, 547/618 nm; stronger effect = higher value
Procedure, shortened: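 Pin-transferred compounds and Texas Red standards go into 100 mM Tris buffer, pH 8.0. After 15 min at room temperature, plates are imaged with 547/618 nm filters. Each value is a dye-equivalent concentration derived from the per-plate dye curve.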
With `CCOC(=O)c1sc(NC(=S)n2cc(C)cn2)c(C(=O)OCC)c1C` the max dye-equivalent concentration was inconclusive: 1.1 nM. With `CC(C)C1Cc2c(C#N)c(N)sc(=S)c2CO1` (stereo not given) the max dye-equivalent concentration was “inactive”. For `O=C(COc1ccc(S(=O)(=O)NC2CCCCC2)cc1Cl)NCc1cccnc1`, the max dye-equivalent concentration was inconclusive: 1.2 nM. For `O=C(Nc1ccc2c(c1)OCO2)C1(S(=O)(=O)c2ccc(Cl)cc2)CC1`, the max dye-equivalent concentration was inconclusive: 1.2 nM. For `C=CCn1c(=O)c2ccccc2n2c(SCc3csc(-c4ccccc4)n3)nnc12`, the max dye-equivalent concentration was inconclusive: 1.1 nM. For `COc1ccc(CCNC(=O)c2c(O)c3c([nH]c2=O)CCCC3)cc1OC`, the max dye-equivalent concentration was inconclusive: 1.2 nM. With `Cc1nn(CC(=O)Nc2cccnc2N2CCOCC2)c(=O)c2ccccc12` the max dye-equivalent concentration was inconclusive: 1.1 nM. With `CCN(CC)CCCN(C(=O)c1cccs1)c1nc(-c2ccc(OC)cc2)cs1` the max dye-equivalent concentration was inconclusive: 1.4 nM. For `COc1ccc(-c2csc(NC(=O)c3cc(C)on3)c2C#N)cc1OC`, the max dye-equivalent concentration was inconclusive: 1.1 nM. For `Cc1ccc(CSc2nnc(-c3cccs3)n2C)cc1`, the max dye-equivalent concentration was inconclusive: 1.3 nM. In the case of `CN(C)CCO[C@@H](c1ccc(Cl)cc1)c1ccccn1`, the max dye-equivalent concentration is reported as inconclusive: 1.3 nM. In the case of `COc1cc(NC(=O)c2ccco2)c(OC)cc1NC(=O)c1cc(OC)c(OC)c(OC)c1`, the max dye-equivalent concentration is reported as inconclusive: 1.4 nM. In the case of `O=C(Cn1cnc2ccccc21)OCC(=O)N1CCc2ccccc2C1`, the max dye-equivalent concentration is reported as inconclusive: 1.8 nM. For `CCOC(=O)c1cc2c(=O)n3cccc(C)c3nc2n(CC2CCCO2)c1=NC(C)=O` (stereo not given), the max dye-equivalent concentration was inconclusive: 1.4 nM. For `CCOC(=O)/C=C1\SCC(=O)N1CCOc1cccc(Br)c1`, the max dye-equivalent concentration was inconclusive: 3 nM. For `Cc1ccc2nc(NC(=O)CN(C)S(=O)(=O)c3cccc4nsnc34)sc2c1`, the max dye-equivalent concentration was inconclusive: 2.1 nM. With `COCCn1c(=O)c(-c2ccc(Cl)cc2)nc2cnc(OCc3ccccc3)nc21` the max dye-equivalent concentration was “inactive”. For `Cc1ccc(-c2noc(CCC(=O)NCCN3CCc4ccccc4C3)n2)cc1`, the max dye-equivalent concentration was inconclusive: 1.1 nM. In the case of `Ic1ccc2c(c1)N(c1ccccc1)c1cc(Nc3ccc4nc5ccc(I)cc5[n+](-c5ccccc5)c4c3)ccc1N2`, the max dye-equivalent concentration is reported as “inactive”. For `COc1cc(C2/C(=C(/O)c3ccc(OCC(C)C)cc3)C(=O)C(=O)N2CCN(C)C)ccc1O` (stereo not given), the max dye-equivalent concentration was inconclusive: 1.1 nM. For `COc1ccc(S(=O)(=O)NC(C)C(=O)Nc2ccccc2F)cc1` (stereo not given), the max dye-equivalent concentration was inconclusive: 1.6 nM. For `O=C(N1CCCCCC1)N1CCN(C(=O)N2CCOCC2)CC1`, the max dye-equivalent concentration was inconclusive: 1.1 nM. For `COc1cc(C(c2nnnn2C2CCCC2)N2CCc3ccccc3C2)ccc1O` (stereo not given), the max dye-equivalent concentration was inconclusive: 1.1 nM. For `C=C(C)CSc1nnc2[nH]c(=O)cc(N)n12`, the max dye-equivalent concentration was inconclusive: 1.5 nM. With `Cc1ccccc1C(=O)NC1CCN(CC(=O)Nc2nccs2)CC1` the max dye-equivalent concentration was inconclusive: 1.5 nM. With `O=C(Nc1cc(=O)c2ccccc2o1)N1CCCCC1` the max dye-equivalent concentration was inconclusive: 2.5 nM. For `CCCC(=O)N1c2ccc(-c3csc(N)n3)cc2CC1C` (stereo not given), the max dye-equivalent concentration was “inactive”. With `Cc1cc(C)cc(OCC(=O)N(Cc2cccs2)C2CCS(=O)(=O)C2)c1` (stereo not given) the max dye-equivalent concentration was inconclusive: 1.6 nM. In the case of `C[C@@](N)(Cc1c[nH]c2ccccc12)C(=O)O`, the max dye-equivalent concentration is reported as “inactive”. For `Cc1ccc2c(c1)-c1cc(C)nn1C(c1sccc1C)N2` (stereo not given), the max dye-equivalent concentration was inconclusive: 1.1 nM. For `COc1cccc(NC(=O)c2ccccc2-c2nc(-c3cccc(C)c3)no2)c1`, the max dye-equivalent concentration was inconclusive: 1.4 nM. With `COc1ccc(S(=O)(=O)Nc2c(C)n(C)n(-c3ccccc3)c2=O)cc1` the max dye-equivalent concentration was inconclusive: 1.2 nM. For `CCCCCn1c(SCCc2ccccc2)nc2c1c(=O)[nH]c(=O)n2C`, the max dye-equivalent concentration was inconclusive: 1.6 nM. For `Cc1ccc(N2CC(C(=O)NCCCn3ccnc3)CC2=O)cc1` (stereo not given), the max dye-equivalent concentration was inconclusive: 1.3 nM. For `CCc1nc(SCc2cc(Cl)ccc2OC)n[nH]1`, the max dye-equivalent concentration was inconclusive: 1.2 nM. With `O=C(C1CCN(S(=O)(=O)N2CCOCC2)CC1)N1CCOCC1` the max dye-equivalent concentration was inconclusive: 1.5 nM. In the case of `O=C(CCCN1C(=O)CSc2ncccc21)N1CCN(c2cccc(C(F)(F)F)c2)CC1`, the max dye-equivalent concentration is reported as inconclusive: 2.9 nM. With `Cn1nnnc1SCC(=O)NCCCc1ccccc1` the max dye-equivalent concentration was inconclusive: 1.8 nM. For `Cc1cnc(C(=O)N2CCN(S(=O)(=O)c3ccc4ccccc4c3)CC2)cn1`, the max dye-equivalent concentration was inconclusive: 1.1 nM. For `O=C(CSc1nnc2sc3ccccc3n12)c1ccco1`, the max dye-equivalent concentration was inconclusive: 1.1 nM. For `Nc1nonc1C(=O)NCCNCc1cc(Br)ccc1OCc1ccc(F)cc1`, the max dye-equivalent concentration was inconclusive: 2 nM. For `Cc1cc(CC(C)C)n(-c2nc3ccccc3c(=O)n2OCC(N)=O)n1`, the max dye-equivalent concentration was inconclusive: 2.2 nM. For `COc1ccc(S(=O)(=O)N2CCCC(C(=O)NCc3ccco3)C2)cc1Cl` (stereo not given), the max dye-equivalent concentration was inconclusive: 2.6 nM. In the case of `Cc1ccc2nc(-c3ccccc3)cn2c1`, the max dye-equivalent concentration is reported as inconclusive: 1.6 nM. For `CCOC(=O)c1sc(NC(=O)CSc2nnc(C(C)C)n2CC)nc1C`, the max dye-equivalent concentration was inconclusive: 3.5 nM. With `Cc1ccc(Cl)cc1N1CCN(C(CC(C)C)c2nnnn2CC2CCCO2)CC1` (stereo not given) the max dye-equivalent concentration was inconclusive: 1.2 nM. In the case of `Nc1ncn([C@@H]2O[C@@H](CO)[C@@H](O)[C@H]2O)c(=O)n1`, the max dye-equivalent concentration is reported as “inactive”. For `Cn1c(=O)cc(OCC(=O)NCCCN2CCN(c3ccccc3F)CC2)c2ccccc21`, the max dye-equivalent concentration was inconclusive: 1.1 nM. With `CCC(=O)N1CCc2cc(S(=O)(=O)NCCCN3CCN(Cc4ccccc4)CC3)ccc21` the max dye-equivalent concentration was inconclusive: 1.3 nM. In the case of `Cc1ccc(S(=O)(=O)C(C#N)c2nc3ccccc3nc2N2CCCC2)cc1` (stereo not given), the max dye-equivalent concentration is reported as inconclusive: 1.1 nM. With `COC(=O)c1nc(-c2ccc(C)cc2)oc1N(C)C` the max dye-equivalent concentration was inconclusive: 1.1 nM. In the case of `COc1ccccc1CNC(=O)CCCNS(=O)(=O)c1cccc2nsnc12`, the max dye-equivalent concentration is reported as “inactive”. With `Cc1noc(C)c1COC(=O)CN(C)S(=O)(=O)c1ccc(Cl)cc1` the max dye-equivalent concentration was inconclusive: 1.6 nM. For `CCOC(=O)CNC(=O)c1cc(-c2ccc3c(c2)OCCO3)oc1C`, the max dye-equivalent concentration was “inactive”. With `COc1ccc(-c2[nH]nc3c2C(c2ccncc2)C(C#N)=C(N)O3)cc1` (stereo not given) the max dye-equivalent concentration was inconclusive: 1.1 nM.
